Results published in paper PMC12881857, “The MabZIP5–MaMYB69 module cooperates with MaERF55 to modulate banana fruit ripening via cell wall degradation”.

Legend:
GST-MabZIP5 (banana) [1] = assay: competition with a labelled probe; settings: 50-fold excess mutant competitor vs N14; Chemiluminescent EMSA Kit (Beyotime); pH and temperature not stated; recombinant protein; protein details: GST (N-term, pGEX-4T-1)
GST-MabZIP5 (banana) [2] = assay: EMSA; settings: Chemiluminescent EMSA Kit (Beyotime), pH and temperature not stated, recombinant protein, protein details: GST (N-term, pGEX-4T-1)

Question: Does “CTTCCATTGTATCGCAGGCGTCAAAAAAGCTTTTGGAGGCTGTCTGCATG (double strand) [MaMYB69 promoter P2 mutant]” bind (GST-MabZIP5 (banana) [1])?
Answer: Result: no binding

Question: Does “CTTCCATTGTATCGCAGGCGTCTACGTAGCTTTTGGAGGCTGTCTGCATG (double strand) [MaMYB69 promoter P2 (A-box)]” bind (GST-MabZIP5 (banana) [2]; label: biotin)?
Answer: Result: binds

Question: Does “GAGAGAGAGAGGTGGAAGACGACGTCCCCCACCTTTGCTTCCTCGCTTGG (double strand) [MaMYB69 promoter P1]” bind (GST-MabZIP5 (banana) [2]; very faint band, label: biotin)?
Answer: Result: binds more weakly

Question: Does “GCGAGGGGAATGGTGGGAAGCTCACGTGGGAGAAACATGCGCTGCCGGCC (double strand) [MaPL1 promoter bZIP5 probe (G-box)]” bind (GST-MabZIP5 (banana) [2])?
Answer: Result: binds

For at least one entry, the source does not settle the construct or the ends of the probe. For some of these results: A negative result means that nothing was seen under these conditions. For some of these results: The comparison behind a weaker result is the experiment's own reference, which may not be listed here.
